Test results taken from PMC7819943, “Rice protein-binding microarrays: a tool to detect cis-acting elements near promoter regions in rice”.
The other results are listed elsewhere or left out.

These sequences were tested against T1, OsSMF1 (Oryza sativa, UniProt Q6ZLB0 1-436) (assay: protein-binding microarray (RPBM); PBS, 2% BSA, 51.3 ng/ul salmon testes DNA, 50 uM zinc acetate, 200 nM TF, 25 C, 1 h; high values mean tight binding). Settings: protein: recombinant; tags: N-terminal polyhistidine and DsRed monomer fusion (pET32a); chain copies: 2; label: CyDye5-dUTP incorporated in the synthesized complementary strand; 3' TTTTT single-stranded linker to array surface; dsDNA, one strand shown.
T1 sequence: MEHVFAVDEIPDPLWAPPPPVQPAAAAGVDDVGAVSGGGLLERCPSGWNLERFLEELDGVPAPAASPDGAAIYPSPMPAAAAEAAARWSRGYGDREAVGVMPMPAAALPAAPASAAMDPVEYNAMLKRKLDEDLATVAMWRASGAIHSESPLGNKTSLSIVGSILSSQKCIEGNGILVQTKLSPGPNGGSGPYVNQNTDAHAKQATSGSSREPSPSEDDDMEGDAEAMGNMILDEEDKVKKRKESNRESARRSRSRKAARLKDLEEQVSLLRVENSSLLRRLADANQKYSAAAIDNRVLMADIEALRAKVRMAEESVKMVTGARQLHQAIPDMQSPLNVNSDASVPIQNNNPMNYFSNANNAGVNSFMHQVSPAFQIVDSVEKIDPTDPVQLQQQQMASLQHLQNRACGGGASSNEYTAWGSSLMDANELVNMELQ
Summary of the method: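 Binding signal is defined as the fluorescence intensity of each feature in arbitrary units, read on an Axon 4000B scanner. Transcription factors with N-terminal polyhistidine and DsRed fusions came from E. coli BL21-CodonPlus and were purified on Ni–NTA. They were incubated at 200 nM for 1 h at 25 °C on a custom Agilent array that had been made double-stranded with Cy5-dUTP, with 50 µM zinc acetate present, and the array was washed.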

Row | Sequence | binding signal
1 | AGAGGCAGTAGAGGTGTGGAGGCCTTGGACAGTTGGATTCCGGAGTCACCTAGTGCAG | 3370 fluorescence intensity (a.u.)
2 | AGAAAGGGTGATGATGTGGTCACCCTAATATGTGAGGTTCCGGAGTCACCTAGTGCAG | 6700 fluorescence intensity (a.u.)
3 | AGTGCGGCGGTGGTTGCCGTGGCACTGCCAATGCCCAAAACGGAGTCACCTAGTGCAG | 4060 fluorescence intensity (a.u.)
4 | ACTACTGTTGATGTGTGTGTTACTATGTAATTCTTGTGTTCGGAGTCACCTAGTGCAG | 5090 fluorescence intensity (a.u.)
5 | AGTCACGGTAGTTGCTTAACTGGAAAACTATAGGCCCGTACGGAGTCACCTAGTGCAG | 3630 fluorescence intensity (a.u.)
6 | ACGTGCTGTTGATGGTAACCGCACACGAGTGACGTGGAGACGGAGTCACCTAGTGCAG | 15700 fluorescence intensity (a.u.)
7 | TGCGTGATCACCTCCTTCATGCAAGGACCTCCGTAAAGTCCGGAGTCACCTAGTGCAG | 3630 fluorescence intensity (a.u.)
8 | AGTTCCTAATATTTCTCAATGTATATATGTACTCATTCCTCGGAGTCACCTAGTGCAG | 3800 fluorescence intensity (a.u.)
9 | TATTAGTTAAGTGTGATGCAGGATATATATGATATGCAGACGGAGTCACCTAGTGCAG | 3210 fluorescence intensity (a.u.)
10 | CCGCGCTCTGCCTCCTTCCTCCCCACAACGGGGAATTTAACGGAGTCACCTAGTGCAG | 19200 fluorescence intensity (a.u.)
11 | CACACCTGGTGTTGAAATTAGGTTGGCACGTTTACATCATCGGAGTCACCTAGTGCAG | 3530 fluorescence intensity (a.u.)
12 | TCCCATTCGCCACTGACACGTGGGGCCCTTCATCGATAACCGGAGTCACCTAGTGCAG | 6250 fluorescence intensity (a.u.)
13 | TCGGGATATTTATGAGCGCTGGTGGAGTGGCGTGGCGAGGCGGAGTCACCTAGTGCAG | 3670 fluorescence intensity (a.u.)
14 | TGCTAATCTTCCAGCCACACACCTAGTCAGTCATCAAAGTCGGAGTCACCTAGTGCAG | 3430 fluorescence intensity (a.u.)
15 | TAATGTCACCAAAGTGCCACATCCGCAGACCAAGTCAACACGGAGTCACCTAGTGCAG | 3940 fluorescence intensity (a.u.)
16 | ATTAAGCCCTCAATCGGCACAGGCGAGGAGTTCTCATCACCGGAGTCACCTAGTGCAG | 12000 fluorescence intensity (a.u.)
17 | CGTCAGAAGAAGACCAAAAGAAGAGAGAAACATAAGCACACGGAGTCACCTAGTGCAG | 33500 fluorescence intensity (a.u.)
18 | ATTGTTACATGTAATCAAGGGGTGATGGGCATATTCACAGCGGAGTCACCTAGTGCAG | 3400 fluorescence intensity (a.u.)
19 | AACAGACCACGGCGGACCATGCCACGCTACGCCGACACCGCGGAGTCACCTAGTGCAG | 5660 fluorescence intensity (a.u.)
20 | ATGGGGATGTTCAGAGAAATGACATGGATTAACCCATAAACGGAGTCACCTAGTGCAG | 3500 fluorescence intensity (a.u.)
21 | TACTATGACGTACTGATTCACATAGCCTGAATACGTATGCCGGAGTCACCTAGTGCAG | 3940 fluorescence intensity (a.u.)

Numbers 1–2 from above:
Row | Sequence | binding signal
1 | AGAGGCAGTAGAGGTGTGGAGGCCTTGGACAGTTGGATTCCGGAGTCACCTAGTGCAG | 3370 fluorescence intensity (a.u.)
2 | AGAAAGGGTGATGATGTGGTCACCCTAATATGTGAGGTTCCGGAGTCACCTAGTGCAG | 6700 fluorescence intensity (a.u.)

Following part:

Row | Sequence | binding signal
22 | AACCTCCCCACCTCACGCGTCTGCCACTCCGGCGAGATATCGGAGTCACCTAGTGCAG | 3800 fluorescence intensity (a.u.)
23 | GCCGTCAGTGATGAGTCACCTGTGACGGGTCCTAACTCGCCGGAGTCACCTAGTGCAG | 15200 fluorescence intensity (a.u.)
24 | GGCCGTCTGCCACGTCATTTTCGCCGCCCTCTCCCAGAGGCGGAGTCACCTAGTGCAG | 16300 fluorescence intensity (a.u.)
25 | TCCACACCGCCAGCATAAACCATTCCACCGTGACGTAATCCGGAGTCACCTAGTGCAG | 8820 fluorescence intensity (a.u.)
26 | ACAGCCCCTTTCGGGATCCTACGTGGCGCTGATGTGGCATCGGAGTCACCTAGTGCAG | 29600 fluorescence intensity (a.u.)
27 | CACATCTCTAAAAGGCCGGCCCGGTCAGGCCCATCTTCAACGGAGTCACCTAGTGCAG | 8250 fluorescence intensity (a.u.)
28 | GATTACAACGTTGTCGCCACGTGTGTCAGCTCATGTTAAACGGAGTCACCTAGTGCAG | 13300 fluorescence intensity (a.u.)
29 | AGAGAAGGGGAGAAGAAAAGGGATTGGGCTGACAAGTGGGCGGAGTCACCTAGTGCAG | 3570 fluorescence intensity (a.u.)
30 | TCTTTCATATTGTCCAAACAAGTCCTTTAAATTTGTCATGCGGAGTCACCTAGTGCAG | 5730 fluorescence intensity (a.u.)
31 | CCCATCACCCTGCCACCTGCCGACGCTGGCTAGCCTCCTTCGGAGTCACCTAGTGCAG | 4290 fluorescence intensity (a.u.)
32 | ACTGCGTCTTGCTCGACCGCTACGTCACCTTCCTCGACGACGGAGTCACCTAGTGCAG | 9090 fluorescence intensity (a.u.)
33 | GCTCACACACCTCACAACTCACAAGTCGAATACGTGTCTACGGAGTCACCTAGTGCAG | 7220 fluorescence intensity (a.u.)
34 | CCAAGATGTGGGCACGGTGCCCATGGGCTGTATGTTGCTTCGGAGTCACCTAGTGCAG | 24600 fluorescence intensity (a.u.)
35 | TTGCATTGCGTATCCAAAGTCCAGGAGACGTGGAATTTGTCGGAGTCACCTAGTGCAG | 3560 fluorescence intensity (a.u.)
36 | TCGCAGCAGTGAGTGTGGTTTTGCCATGATCGACGTGCCCCGGAGTCACCTAGTGCAG | 4730 fluorescence intensity (a.u.)
37 | TCGCGACGACCTGTGCGTACTGCAGTGCGGCGTCACCTATCGGAGTCACCTAGTGCAG | 4990 fluorescence intensity (a.u.)
38 | AGTGCATCTCGACCACGCATTTCATCAAACACCTGGCGTGCGGAGTCACCTAGTGCAG | 4360 fluorescence intensity (a.u.)
39 | TTAGTATATCATCATAGAAGAAAATTCTACACTATGTGTACGGAGTCACCTAGTGCAG | 3620 fluorescence intensity (a.u.)
40 | GCAGATGATCTGTATCCATTGTATACAAGTTGCGTCATTTCGGAGTCACCTAGTGCAG | 5650 fluorescence intensity (a.u.)
41 | ATACTCTAGATAATAATTGCTAGTGGATGATGATGTGGCACGGAGTCACCTAGTGCAG | 12400 fluorescence intensity (a.u.)
42 | CACTGCCACGTCACAGGTCAGTAGAGTCGCCGTGGCCGTGCGGAGTCACCTAGTGCAG | 17600 fluorescence intensity (a.u.)
